Test results from PubChem BioAssay AID485314 (National Center for Advancing Translational Sciences (NCATS), 2010).
Hit rate of the full screen: of about 340,000 compounds, about 4,500 (1.3%) were called active. Inconclusive means that the source gave no clear call. Such entries were picked first, then a sample of the others. The call rests on the fitted dose curve; in most records, active means well fitted inhibition curve with a large enough effect; inconclusive means small, poorly fitted or top-dose-only effect, or another doubt; inactive means no such curve, though single readings can be large or run the other way. A potency beside an inconclusive call is a rough fit, not a confirmed value.

These compounds were tested against DNA polymerase beta (Homo sapiens) (UniProt P06746) (assay: qHTS Assay for Inhibitors of DNA Polymerase Beta). Details: Pol beta primer extension/strand displacement, fluorescence kinetic; activity change, negative = inhibition: at 114 µM (top of the series).
In short: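 Preincubation: enzyme (10 nM) with compound, 15 min, RT. Reaction: substrate added to 50 nM final. Reads: 0 and 10 min. Analysis: normalized, Hill fit.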
On the % scale 0 is the no-effect control and ±100 the full control effect; potency means the concentration at half of the fitted maximal effect.

Structure (SMILES) | Potency | activity change, negative = inhibition
O=C(NCCc1ccco1)c1nn(Cc2ccccc2)c(=O)c2ccccc12 | active: 44.7 µM | –
CCOc1ccc(-c2nnc(SCC(=O)Nc3cc(C)ccc3OC)o2)cc1 | inconclusive: 56.2 µM [inhibitor, partial curve] | –
CN1C(=O)/C(=C\c2cc(N=Nc3ccccc3)ccc2O)SC1=S | – | inactive: -0.599%
O=C(N/N=C/c1ccc(Cl)cc1Cl)c1ccncc1 | – | inactive: 49.3%
CCOc1cc(/C=N/NC(=O)c2nnn(-c3nonc3N)c2C)ccc1OCc1ccc(F)cc1 | – | inactive: 1.15%
CCOC(=O)C1C(=O)C=C(c2ccc(NS(C)(=O)=O)cc2)CC1c1ccco1 (stereo not drawn) | inconclusive: 25.1 µM [inhibitor, partial curve, poor fit] | –
Cc1c(NC(=O)c2ccc(COc3ccc4ccccc4c3)o2)c(=O)n(-c2ccccc2)n1C | inconclusive: 89.1 µM [inhibitor, single point] | –
Cc1ccc(C(=O)N/C(=C/c2ccco2)C(=O)NCc2ccco2)cc1 | active: 35.5 µM | –
O=C(N1CCN(c2ccccn2)CC1)N1c2ccccc2Sc2ccccc21 | inconclusive: 56.2 µM [inhibitor, partial curve] | –
C=CCn1c(SCc2cc(C(=O)OC)c(C)o2)nnc1-c1ccncc1 | inconclusive: 14.1 µM [inhibitor, partial curve] | –
COc1ccc(NC2=C(Cl)C(=O)N(c3ccccc3)C2=O)c(OC)c1 | inconclusive: 0.708 µM [inhibitor, full curve, poor fit] | –
Cc1cc(NS(=O)(=O)c2ccc(N3C(=O)C4C5C=CC(C5)C4C3=O)cc2)nc(C)n1 (stereo not drawn) | inconclusive: 44.7 µM [inhibitor, partial curve] | –
COc1ccc([C@]23Cc4cc(OC)c(OC)cc4C(O2)c2c(cc(C)n(Cc4ccccc4)c2=O)O3)cc1 | – | inactive: -5.67% [at 22.9 µM]
COc1cccc(/C=N/Nc2snc(SC)c2C#N)c1O | inconclusive: 25.1 µM [inhibitor, full curve, poor fit] | –
Cc1cccc(C(=O)NC(=S)Nc2ccc(Cc3ccncc3)cc2)c1 | inconclusive: 0.447 µM [inhibitor, full curve, poor fit] | –
O=Cc1c(N2CCN(c3ccccc3)CC2)nc2ccccn2c1=O | inconclusive: 100 µM [inhibitor, single point] | –
Cc1ccc2c(cnn2C(=O)CCC(=O)NC2CCCC2)c1 | inconclusive: 0.0794 µM [inhibitor, full curve] | –
Cc1ccc2nc(-c3ccc(N4C(=NC(=O)CCC(=O)O)SC5CS(=O)(=O)CC54)cc3)sc2c1 (stereo not drawn) | inconclusive: 20 µM [inhibitor, single point] | –

Four entries from above, reformatted:
Structure (SMILES)	Potency	activity change, negative = inhibition
CCOc1ccc(-c2nnc(SCC(=O)Nc3cc(C)ccc3OC)o2)cc1	inconclusive: 56.2 µM [inhibitor, partial curve]	–
CCOC(=O)C1C(=O)C=C(c2ccc(NS(C)(=O)=O)cc2)CC1c1ccco1 (stereo not drawn)	inconclusive: 25.1 µM [inhibitor, partial curve, poor fit]	–
Cc1ccc(C(=O)N/C(=C/c2ccco2)C(=O)NCc2ccco2)cc1	active: 35.5 µM	–
COc1ccc([C@]23Cc4cc(OC)c(OC)cc4C(O2)c2c(cc(C)n(Cc4ccccc4)c2=O)O3)cc1	–	inactive: -5.67% [at 22.9 µM]
